Laboratory results published in the supplement of paper PMC6411743.
± gives the standard deviation of the averaged measurements. This is a selection; strong and weak results do not stand in their true shares.

Sequences of proteins named here, by UniProt entry; tags and fusion partners are left off. A change or cut given only in a name is not applied to a line headed by its entry.
UniProt Q9H0E9, whole entry: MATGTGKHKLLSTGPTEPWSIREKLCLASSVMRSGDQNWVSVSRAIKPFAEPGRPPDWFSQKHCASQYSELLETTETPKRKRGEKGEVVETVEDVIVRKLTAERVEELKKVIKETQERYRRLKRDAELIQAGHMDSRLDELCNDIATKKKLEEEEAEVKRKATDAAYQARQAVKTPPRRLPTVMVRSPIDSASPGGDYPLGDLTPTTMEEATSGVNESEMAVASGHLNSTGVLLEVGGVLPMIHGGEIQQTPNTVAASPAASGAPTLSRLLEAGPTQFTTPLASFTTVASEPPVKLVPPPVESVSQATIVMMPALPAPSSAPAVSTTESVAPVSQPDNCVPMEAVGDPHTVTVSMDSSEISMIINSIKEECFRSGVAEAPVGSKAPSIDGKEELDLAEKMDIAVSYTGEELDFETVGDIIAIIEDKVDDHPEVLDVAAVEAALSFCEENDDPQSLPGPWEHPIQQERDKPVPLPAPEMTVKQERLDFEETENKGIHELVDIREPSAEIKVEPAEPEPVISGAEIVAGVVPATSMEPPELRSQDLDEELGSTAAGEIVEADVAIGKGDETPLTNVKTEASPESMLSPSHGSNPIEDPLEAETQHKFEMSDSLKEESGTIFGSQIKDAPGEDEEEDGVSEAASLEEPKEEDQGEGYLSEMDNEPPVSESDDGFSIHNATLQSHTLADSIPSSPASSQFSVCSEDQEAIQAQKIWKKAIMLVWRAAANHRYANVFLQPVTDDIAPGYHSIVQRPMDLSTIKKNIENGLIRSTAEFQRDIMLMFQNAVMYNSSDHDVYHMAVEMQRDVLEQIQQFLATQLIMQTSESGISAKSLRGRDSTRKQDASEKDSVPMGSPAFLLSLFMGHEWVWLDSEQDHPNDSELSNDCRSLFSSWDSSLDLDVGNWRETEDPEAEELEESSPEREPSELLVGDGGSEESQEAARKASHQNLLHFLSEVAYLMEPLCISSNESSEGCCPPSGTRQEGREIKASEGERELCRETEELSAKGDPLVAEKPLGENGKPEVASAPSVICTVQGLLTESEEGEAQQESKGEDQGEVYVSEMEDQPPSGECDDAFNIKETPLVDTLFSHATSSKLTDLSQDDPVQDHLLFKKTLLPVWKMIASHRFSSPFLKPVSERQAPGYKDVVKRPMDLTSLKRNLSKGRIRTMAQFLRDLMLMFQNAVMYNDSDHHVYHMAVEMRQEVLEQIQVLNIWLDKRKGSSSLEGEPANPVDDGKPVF
UniProt P17844: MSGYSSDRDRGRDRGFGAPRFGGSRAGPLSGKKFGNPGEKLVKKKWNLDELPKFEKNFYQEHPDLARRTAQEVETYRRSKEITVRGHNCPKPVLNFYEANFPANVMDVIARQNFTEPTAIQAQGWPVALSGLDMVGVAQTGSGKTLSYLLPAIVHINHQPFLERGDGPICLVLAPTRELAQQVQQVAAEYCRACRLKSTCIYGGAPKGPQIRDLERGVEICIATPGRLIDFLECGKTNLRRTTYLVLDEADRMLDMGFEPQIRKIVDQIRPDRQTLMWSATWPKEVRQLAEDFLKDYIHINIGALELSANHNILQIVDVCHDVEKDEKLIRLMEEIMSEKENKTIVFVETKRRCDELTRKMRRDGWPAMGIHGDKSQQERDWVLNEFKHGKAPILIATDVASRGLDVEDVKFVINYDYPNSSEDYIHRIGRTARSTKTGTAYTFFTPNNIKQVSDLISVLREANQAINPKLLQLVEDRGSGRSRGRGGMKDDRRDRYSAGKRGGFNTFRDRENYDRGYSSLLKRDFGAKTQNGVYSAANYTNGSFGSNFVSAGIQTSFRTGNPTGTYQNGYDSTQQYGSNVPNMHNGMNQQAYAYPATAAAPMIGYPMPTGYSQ
UniProt Q7LG56, whole entry: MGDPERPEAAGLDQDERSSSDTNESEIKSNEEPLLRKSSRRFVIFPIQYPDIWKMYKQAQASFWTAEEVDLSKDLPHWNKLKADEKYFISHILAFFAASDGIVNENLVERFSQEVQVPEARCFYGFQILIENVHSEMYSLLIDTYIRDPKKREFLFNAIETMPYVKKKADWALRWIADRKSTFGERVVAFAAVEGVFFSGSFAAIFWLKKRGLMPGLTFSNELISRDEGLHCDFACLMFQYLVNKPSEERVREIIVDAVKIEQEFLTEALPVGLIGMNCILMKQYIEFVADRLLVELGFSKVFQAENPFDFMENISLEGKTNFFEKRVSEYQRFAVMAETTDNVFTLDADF
UniProt Q96K83: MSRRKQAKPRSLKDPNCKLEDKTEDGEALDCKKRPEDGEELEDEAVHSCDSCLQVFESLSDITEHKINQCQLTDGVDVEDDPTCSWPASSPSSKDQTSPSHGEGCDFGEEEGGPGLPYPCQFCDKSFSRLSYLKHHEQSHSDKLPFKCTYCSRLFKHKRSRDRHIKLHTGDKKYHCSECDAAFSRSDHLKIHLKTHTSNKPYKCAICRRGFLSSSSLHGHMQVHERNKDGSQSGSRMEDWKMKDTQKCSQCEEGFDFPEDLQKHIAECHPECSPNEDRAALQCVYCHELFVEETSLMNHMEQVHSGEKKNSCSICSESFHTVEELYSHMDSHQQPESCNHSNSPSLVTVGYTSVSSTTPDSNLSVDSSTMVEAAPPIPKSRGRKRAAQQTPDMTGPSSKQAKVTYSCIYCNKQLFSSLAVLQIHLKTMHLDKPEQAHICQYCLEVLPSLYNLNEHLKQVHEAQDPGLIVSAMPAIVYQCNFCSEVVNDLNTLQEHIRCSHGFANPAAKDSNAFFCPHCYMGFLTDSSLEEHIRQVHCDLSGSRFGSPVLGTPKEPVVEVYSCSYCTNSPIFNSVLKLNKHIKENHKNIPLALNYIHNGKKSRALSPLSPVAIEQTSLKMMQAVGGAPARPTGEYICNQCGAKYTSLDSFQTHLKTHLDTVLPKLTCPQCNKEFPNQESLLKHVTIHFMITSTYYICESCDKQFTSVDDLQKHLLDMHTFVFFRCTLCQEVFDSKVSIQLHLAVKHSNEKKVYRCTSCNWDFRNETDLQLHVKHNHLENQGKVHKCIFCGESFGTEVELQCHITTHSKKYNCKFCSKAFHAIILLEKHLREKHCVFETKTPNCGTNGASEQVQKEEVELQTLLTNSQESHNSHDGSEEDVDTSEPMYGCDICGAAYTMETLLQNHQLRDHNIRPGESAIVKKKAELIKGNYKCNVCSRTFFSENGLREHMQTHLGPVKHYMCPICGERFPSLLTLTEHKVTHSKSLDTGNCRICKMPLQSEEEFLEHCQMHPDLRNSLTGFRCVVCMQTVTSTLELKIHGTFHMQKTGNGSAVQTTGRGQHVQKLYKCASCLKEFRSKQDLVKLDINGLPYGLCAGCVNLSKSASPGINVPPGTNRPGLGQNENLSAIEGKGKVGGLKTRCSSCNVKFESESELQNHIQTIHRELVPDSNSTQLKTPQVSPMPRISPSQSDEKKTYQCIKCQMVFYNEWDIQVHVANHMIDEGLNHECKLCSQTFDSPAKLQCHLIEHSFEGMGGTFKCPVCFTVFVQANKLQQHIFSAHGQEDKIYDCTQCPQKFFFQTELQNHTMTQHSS
UniProt P12829: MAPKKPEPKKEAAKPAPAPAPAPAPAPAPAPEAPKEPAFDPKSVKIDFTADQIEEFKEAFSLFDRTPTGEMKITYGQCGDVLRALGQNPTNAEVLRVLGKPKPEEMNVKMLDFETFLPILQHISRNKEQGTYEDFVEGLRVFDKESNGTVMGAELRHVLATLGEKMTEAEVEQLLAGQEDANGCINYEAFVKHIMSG
UniProt P27708: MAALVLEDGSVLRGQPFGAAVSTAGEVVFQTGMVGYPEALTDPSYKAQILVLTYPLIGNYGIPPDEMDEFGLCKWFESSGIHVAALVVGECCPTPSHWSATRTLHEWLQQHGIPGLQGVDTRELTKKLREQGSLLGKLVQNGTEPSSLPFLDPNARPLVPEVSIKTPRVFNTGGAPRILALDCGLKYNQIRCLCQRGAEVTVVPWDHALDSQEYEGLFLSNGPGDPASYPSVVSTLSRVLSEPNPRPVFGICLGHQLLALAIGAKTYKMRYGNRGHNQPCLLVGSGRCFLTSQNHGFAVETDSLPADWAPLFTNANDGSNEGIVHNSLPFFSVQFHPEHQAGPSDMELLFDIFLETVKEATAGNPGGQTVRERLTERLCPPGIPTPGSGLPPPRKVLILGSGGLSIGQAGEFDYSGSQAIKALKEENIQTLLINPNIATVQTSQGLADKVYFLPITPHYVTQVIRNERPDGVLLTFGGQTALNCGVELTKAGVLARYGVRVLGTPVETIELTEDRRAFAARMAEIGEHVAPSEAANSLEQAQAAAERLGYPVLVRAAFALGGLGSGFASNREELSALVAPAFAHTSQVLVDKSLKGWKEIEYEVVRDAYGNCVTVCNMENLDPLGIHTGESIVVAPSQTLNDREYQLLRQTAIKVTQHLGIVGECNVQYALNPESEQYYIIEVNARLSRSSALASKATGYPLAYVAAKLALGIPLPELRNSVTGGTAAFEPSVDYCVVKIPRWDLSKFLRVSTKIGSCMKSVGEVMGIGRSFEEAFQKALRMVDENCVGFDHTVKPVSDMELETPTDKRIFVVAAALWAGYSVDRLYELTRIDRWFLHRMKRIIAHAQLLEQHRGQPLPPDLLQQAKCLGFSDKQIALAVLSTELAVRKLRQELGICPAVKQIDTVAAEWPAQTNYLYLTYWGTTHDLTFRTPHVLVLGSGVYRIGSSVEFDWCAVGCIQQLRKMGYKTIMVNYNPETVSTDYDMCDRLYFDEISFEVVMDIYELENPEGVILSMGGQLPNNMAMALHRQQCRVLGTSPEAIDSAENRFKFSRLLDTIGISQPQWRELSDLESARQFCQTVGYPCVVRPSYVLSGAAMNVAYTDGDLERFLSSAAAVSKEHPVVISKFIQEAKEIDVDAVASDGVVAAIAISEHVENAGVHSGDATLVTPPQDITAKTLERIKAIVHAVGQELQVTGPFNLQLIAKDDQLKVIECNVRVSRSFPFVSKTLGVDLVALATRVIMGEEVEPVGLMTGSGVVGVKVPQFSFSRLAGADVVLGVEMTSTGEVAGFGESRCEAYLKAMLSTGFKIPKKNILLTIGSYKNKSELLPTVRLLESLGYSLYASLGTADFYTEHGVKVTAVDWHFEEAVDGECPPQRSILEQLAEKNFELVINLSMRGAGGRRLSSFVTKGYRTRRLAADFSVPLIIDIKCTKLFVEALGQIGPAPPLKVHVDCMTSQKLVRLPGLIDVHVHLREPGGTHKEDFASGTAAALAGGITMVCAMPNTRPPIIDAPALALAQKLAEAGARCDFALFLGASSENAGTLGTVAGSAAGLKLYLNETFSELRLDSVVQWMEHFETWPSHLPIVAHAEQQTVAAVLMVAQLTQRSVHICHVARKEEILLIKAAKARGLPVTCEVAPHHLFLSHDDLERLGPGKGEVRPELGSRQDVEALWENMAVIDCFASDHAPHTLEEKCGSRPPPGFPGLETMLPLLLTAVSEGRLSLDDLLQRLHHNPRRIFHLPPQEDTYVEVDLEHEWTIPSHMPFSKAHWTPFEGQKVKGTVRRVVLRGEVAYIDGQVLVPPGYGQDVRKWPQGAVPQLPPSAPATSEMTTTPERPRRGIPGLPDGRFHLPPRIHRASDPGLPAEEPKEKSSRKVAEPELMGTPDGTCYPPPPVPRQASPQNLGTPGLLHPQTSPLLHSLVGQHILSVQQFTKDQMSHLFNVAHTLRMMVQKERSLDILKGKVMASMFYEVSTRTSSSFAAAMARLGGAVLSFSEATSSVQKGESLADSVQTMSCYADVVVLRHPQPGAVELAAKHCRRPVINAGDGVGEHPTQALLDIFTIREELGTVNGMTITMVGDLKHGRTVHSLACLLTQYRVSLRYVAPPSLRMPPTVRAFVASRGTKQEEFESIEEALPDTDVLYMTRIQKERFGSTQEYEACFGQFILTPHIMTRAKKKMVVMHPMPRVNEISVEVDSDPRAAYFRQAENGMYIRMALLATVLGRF
UniProt Q5J8M3, whole entry: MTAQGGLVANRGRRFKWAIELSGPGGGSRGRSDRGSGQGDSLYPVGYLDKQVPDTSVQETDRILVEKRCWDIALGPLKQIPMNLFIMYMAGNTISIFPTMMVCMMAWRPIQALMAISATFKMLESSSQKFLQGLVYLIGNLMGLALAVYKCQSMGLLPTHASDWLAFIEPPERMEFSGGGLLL
UniProt P09493, whole entry: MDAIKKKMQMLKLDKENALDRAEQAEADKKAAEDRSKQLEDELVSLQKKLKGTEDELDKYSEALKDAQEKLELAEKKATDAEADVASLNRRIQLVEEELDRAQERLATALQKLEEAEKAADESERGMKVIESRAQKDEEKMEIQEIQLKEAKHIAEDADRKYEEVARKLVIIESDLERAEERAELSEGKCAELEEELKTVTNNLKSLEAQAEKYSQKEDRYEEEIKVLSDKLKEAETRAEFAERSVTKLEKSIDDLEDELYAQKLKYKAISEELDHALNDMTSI

Compound: Nc1ncnc2c1ncn2[C@@H]1O[C@H](COP(=O)(O)OP(=O)(O)NP(=O)(O)O)[C@@H](O)[C@H]1O [adenylyl imidodiphosphate]
Test: NP40-soluble protein abundance relative to vehicle (solubility fold change) (ratio); higher = more soluble protein in presence of AMP-PNP
Method in brief: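 Data come from three independent experiments in which Dounce-homogenised Jurkat crude lysate was treated at eight concentrations from 0.1 to 10 mM. Treatment ran 10 min at room temperature and then 3 min at 37 °C, after which 0.8% NP40 and benzonase were added for 60 min at 4 °C before ultracentrifugation. The supernatant underwent TMT labelling and LC-MS/MS, and vsn-normalised intensities were expressed as fold change against the detergent-processed vehicle in each replicate.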

Target | NP40-soluble protein abundance (concentration: 1mM) | NP40-soluble protein abundance (concentration: 2mM) | NP40-soluble protein abundance (concentration: 4mM) | NP40-soluble protein abundance (concentration: 6mM) | NP40-soluble protein abundance (concentration: 8mM) | NP40-soluble protein abundance (concentration: 10mM)
H7C127 and related entries (UniProt Q9H0E9) | 1.05 ± 0.042 | 1.085 ± 0.0036 | 1.07 ± 0.02 | 1.05 ± 0.078 | 1.04 ± 0.068 | 1.08 ± 0.081
J3KTA4 and related entries (UniProt P17844) | 1.03 ± 0.038 | 0.958 ± 0.15 | 1 ± 0.066 | 0.995 ± 0.14 | 1 ± 0.1 | 0.975 ± 0.13
H0YAV1 and related entries (UniProt Q7LG56) | 0.97 ± 0.012 | 0.976 ± 0.023 | 0.971 ± 0.0099 | 0.9473 ± 0.0023 | 0.9779 ± 0.0075 | 0.957 ± 0.042
H7BYU6 and related entries (UniProt Q96K83) | 0.978 ± 0.036 | 0.988 ± 0.015 | 0.986 ± 0.031 | 0.99 ± 0.015 | 0.996 ± 0.027 | 0.984 ± 0.014
H0YDK9 and related entries (UniProt Q5H9R7) | 0.954 ± 0.023 | 0.981 ± 0.042 | 0.949 ± 0.014 | 0.936 ± 0.018 | 0.896 ± 0.026 | 0.882 ± 0.02
J3KN32 and related entries (UniProt Q9UKL0) | 1.01 ± 0.036 | 1.04 ± 0.076 | 1.03 ± 0.065 | 1.08 ± 0.021 | 1.07 ± 0.035 | 1.13 ± 0.11
H3BM14 and related entries (UniProt Q9Y5A7) | 0.985 ± 0.013 | 0.993 ± 0.012 | 0.986 ± 0.03 | 1.01 ± 0.024 | 0.98 ± 0.025 | 0.989 ± 0.028
I3L448 and related entries (UniProt Q5TC12) | 1.01 ± 0.033 | 1.02 ± 0.015 | 1.01 ± 0.039 | 0.992 ± 0.029 | 0.965 ± 0.027 | 0.977 ± 0.039
I3L1K6 and related entries (UniProt P12829) | 0.9992 ± 0.0033 | 1.03 ± 0.062 | 0.984 ± 0.011 | 0.975 ± 0.051 | 0.956 ± 0.041 | 0.944 ± 0.027
J3KS51 and related entries (UniProt O75376) | 1.02 ± 0.049 | 1.06 ± 0.028 | 1.03 ± 0.035 | 0.989 ± 0.058 | 0.959 ± 0.032 | 1.01 ± 0.046
H3BRB6 and related entries (UniProt Q8ND25) | 1.01 ± 0.014 | 1 ± 0.017 | 0.978 ± 0.035 | 0.946 ± 0.012 | 0.969 ± 0.017 | 0.924 ± 0.0025
H3BRN4 and related entries (UniProt P80404) | 0.997 ± 0.023 | 0.943 ± 0.085 | 0.993 ± 0.023 | 0.991 ± 0.031 | 1.02 ± 0.017 | 0.985 ± 0.031
H7BZB3 and related entries (UniProt P27708) | 0.938 ± 0.072 | 0.854 ± 0.16 | 0.883 ± 0.11 | 0.894 ± 0.092 | 0.886 ± 0.077 | 0.851 ± 0.12
H0YK61 and related entries (UniProt Q5J8M3) | 1.01 ± 0.033 | 1 ± 0.067 | 1.03 ± 0.06 | 0.983 ± 0.027 | 0.967 ± 0.042 | 1.02 ± 0.072
H7BYY1 and related entries (UniProt P09493) | 1.14 ± 0.055 | 1.23 ± 0.12 | 1.17 ± 0.11 | 1.22 ± 0.18 | 1.21 ± 0.093 | 1.06 ± 0.061

Record cards (already shown). Order of values: NP40-soluble protein abundance (concentration: 1mM)	NP40-soluble protein abundance (concentration: 2mM)	NP40-soluble protein abundance (concentration: 4mM)	NP40-soluble protein abundance (concentration: 6mM)	NP40-soluble protein abundance (concentration: 8mM)	NP40-soluble protein abundance (concentration: 10mM)
J3KN32 and related entries (UniProt Q9UKL0) is listed as 1.01 ± 0.036	1.04 ± 0.076	1.03 ± 0.065	1.08 ± 0.021	1.07 ± 0.035	1.13 ± 0.11
I3L448 and related entries (UniProt Q5TC12) is listed as 1.01 ± 0.033	1.02 ± 0.015	1.01 ± 0.039	0.992 ± 0.029	0.965 ± 0.027	0.977 ± 0.039
